Results are given in words; binding and its absence hold for the method and conditions named. Some results given as binding are weak or reduced against the parent protein; the word gives no strength.
Target: CD19 antigen (analyte of the Octet affinity assay) (UniProt P15391)
Test: BLI (Octet), scFv-rFc on biosensor, CD19 antigen 400 to 12.5 nM in solution

Sequences of proteins named here, by UniProt entry; tags and fusion partners are left off. Residues count along the entry.
UniProt P15391, residues 20-291: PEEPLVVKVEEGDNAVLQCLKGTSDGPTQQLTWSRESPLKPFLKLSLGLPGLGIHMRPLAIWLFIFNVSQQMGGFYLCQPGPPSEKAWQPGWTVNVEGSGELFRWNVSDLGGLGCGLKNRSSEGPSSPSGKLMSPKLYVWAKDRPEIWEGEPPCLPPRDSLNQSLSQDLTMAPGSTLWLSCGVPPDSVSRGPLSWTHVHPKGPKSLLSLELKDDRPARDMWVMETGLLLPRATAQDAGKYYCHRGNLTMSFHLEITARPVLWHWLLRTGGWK

Binder | binding
#62 anti-CD19 scFv-rFc (Fc fusion, not shown: a dimerising Fc or GST; small tags and cut ends) scFv: QSVVTQPPSVSGAPGQRVTISCTGSSSNIGAGYDVHWYQQLPGTAPKLLIYENTNRPSGVPDRFSGSKSGTSASLAITGLQAEDEADYYCQSYDSSLSGWRVFGGGTKLTVLGSRGGGGSGGGGSGGGGSLEMAEVQLVQSGAEVKKPGESLKISCKGSGYSFTNSWIGWVRQMPGKGLEWMGLIYPDDSDTRYSPSFQGQVTISADSAINTAYLQWSSLKASDTAMYYCARQSTYIYGGYYDTWGQGTLVTVSS | binds
#78 anti-CD19 scFv-rFc (Fc fusion, not shown: a dimerising Fc or GST; small tags and cut ends) scFv: QAVLTQPPSVSEAPRQRVTISCSGSSSNIGNNAVSWYQQLPGKAPKLLIYYDDLLPSGVSDRFSGSKSGTSASLAISGLQSEDEADYYCAAWDDSLNGWVFGGGTKVTVLGSRGGGGSGGGGSGGGGSLEEVQLVQSGAEVKKPGESLKISCKGSGYSFTSYWIGWVRQMPGKGLEWMGIIYPGDSDTRYSPSFQGQVTISADKSISTAYLQWSSLKASDTAMYYCARLSYSWSSWYWDFWGQGTLVTVSS | binds
